The other results are listed elsewhere or left out.
Key:
Assay in all cases: log2 fold change, soluble protein after heating vs DMSO (PISA); higher = thermal stabilisation; K562 cells, 10 uM, 30 min; active = over 0.2 and 3.5 SD of the protein, either way, in both replicates (recomputed)
[1] = compound: NC(=O)Nc1cc(-c2cccc(F)c2)sc1C(=O)N[C@H]1CCCNC1
Outline: (§1)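 Aliquots of K562 cells (2×10^6 cells/mL) treated with 10 μM compound for 30 min were heated for 3 min over 48°C-58°C. After pooling and extraction in PBS with 0.5% NP-40 at 4°C, soluble protein from a 21,000xg, 90 min spin was quantified by TMTpro 16plex LC-MS/MS with channel sums equalised. Thermal stability is expressed against control samples, from duplicates, as a log2 fold change.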

Chains of the proteins cited; added tags and fusions are not shown. Lines headed by an entry give the natural chain unless they say otherwise; changes in a name come on top.
UniProt Q9BRP4: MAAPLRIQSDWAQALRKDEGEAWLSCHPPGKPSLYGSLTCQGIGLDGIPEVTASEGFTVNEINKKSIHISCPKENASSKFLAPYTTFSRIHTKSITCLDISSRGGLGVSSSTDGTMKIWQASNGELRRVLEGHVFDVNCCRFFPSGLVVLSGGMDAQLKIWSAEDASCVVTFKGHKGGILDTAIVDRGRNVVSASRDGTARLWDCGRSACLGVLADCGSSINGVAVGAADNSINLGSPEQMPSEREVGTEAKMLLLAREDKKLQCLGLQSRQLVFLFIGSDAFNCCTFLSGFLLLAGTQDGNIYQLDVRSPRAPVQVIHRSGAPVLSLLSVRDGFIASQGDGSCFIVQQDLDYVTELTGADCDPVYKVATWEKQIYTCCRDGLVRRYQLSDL
UniProt P11940, whole entry, looked up: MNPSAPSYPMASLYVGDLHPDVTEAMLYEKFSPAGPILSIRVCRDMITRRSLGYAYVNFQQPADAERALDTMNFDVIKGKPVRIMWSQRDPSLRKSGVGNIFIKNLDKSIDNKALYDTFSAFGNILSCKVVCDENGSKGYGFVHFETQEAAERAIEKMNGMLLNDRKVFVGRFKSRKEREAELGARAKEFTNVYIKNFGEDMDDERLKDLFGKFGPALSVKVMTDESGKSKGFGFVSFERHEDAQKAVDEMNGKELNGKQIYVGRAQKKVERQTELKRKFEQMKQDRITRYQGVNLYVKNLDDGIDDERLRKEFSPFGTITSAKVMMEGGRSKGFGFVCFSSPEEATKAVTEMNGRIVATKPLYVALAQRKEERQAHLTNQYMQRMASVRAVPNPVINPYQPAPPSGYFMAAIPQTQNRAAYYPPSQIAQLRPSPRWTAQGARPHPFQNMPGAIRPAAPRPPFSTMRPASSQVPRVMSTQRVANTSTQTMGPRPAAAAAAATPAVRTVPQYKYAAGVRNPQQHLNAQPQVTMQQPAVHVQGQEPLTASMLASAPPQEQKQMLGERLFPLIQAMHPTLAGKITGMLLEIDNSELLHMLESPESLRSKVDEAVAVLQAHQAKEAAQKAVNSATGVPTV
UniProt Q8N1F7: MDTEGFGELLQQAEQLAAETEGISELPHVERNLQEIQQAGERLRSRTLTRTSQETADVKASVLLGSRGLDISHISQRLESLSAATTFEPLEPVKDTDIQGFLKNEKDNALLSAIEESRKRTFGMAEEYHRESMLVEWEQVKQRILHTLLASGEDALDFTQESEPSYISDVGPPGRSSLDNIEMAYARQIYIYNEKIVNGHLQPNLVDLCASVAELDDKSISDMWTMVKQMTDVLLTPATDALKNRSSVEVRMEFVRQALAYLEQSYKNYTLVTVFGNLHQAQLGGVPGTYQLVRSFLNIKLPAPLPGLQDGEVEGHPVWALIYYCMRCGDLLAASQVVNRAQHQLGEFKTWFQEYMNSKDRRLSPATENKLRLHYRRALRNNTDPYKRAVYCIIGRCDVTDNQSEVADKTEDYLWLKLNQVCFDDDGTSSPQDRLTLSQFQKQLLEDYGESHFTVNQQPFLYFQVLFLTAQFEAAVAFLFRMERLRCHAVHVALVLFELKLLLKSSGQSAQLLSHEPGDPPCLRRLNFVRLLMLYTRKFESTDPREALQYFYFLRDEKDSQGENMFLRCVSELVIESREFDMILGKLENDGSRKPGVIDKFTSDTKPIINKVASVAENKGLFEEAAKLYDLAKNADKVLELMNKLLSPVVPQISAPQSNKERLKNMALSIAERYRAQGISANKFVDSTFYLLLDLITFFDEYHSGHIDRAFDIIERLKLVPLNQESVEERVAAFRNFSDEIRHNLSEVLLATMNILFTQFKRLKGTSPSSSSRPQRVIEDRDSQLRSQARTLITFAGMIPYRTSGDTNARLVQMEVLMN
UniProt Q96CB9: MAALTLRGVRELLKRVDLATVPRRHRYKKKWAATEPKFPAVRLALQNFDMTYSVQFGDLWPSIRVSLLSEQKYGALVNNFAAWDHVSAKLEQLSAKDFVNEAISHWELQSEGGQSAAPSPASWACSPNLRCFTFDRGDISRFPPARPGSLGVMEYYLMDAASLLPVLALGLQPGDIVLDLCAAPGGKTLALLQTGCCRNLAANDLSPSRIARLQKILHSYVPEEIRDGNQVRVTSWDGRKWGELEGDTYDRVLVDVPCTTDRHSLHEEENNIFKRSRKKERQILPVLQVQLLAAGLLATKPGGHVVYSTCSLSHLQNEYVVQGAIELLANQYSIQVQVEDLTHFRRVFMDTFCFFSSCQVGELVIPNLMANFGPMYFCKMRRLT
UniProt O43482, whole entry, looked up: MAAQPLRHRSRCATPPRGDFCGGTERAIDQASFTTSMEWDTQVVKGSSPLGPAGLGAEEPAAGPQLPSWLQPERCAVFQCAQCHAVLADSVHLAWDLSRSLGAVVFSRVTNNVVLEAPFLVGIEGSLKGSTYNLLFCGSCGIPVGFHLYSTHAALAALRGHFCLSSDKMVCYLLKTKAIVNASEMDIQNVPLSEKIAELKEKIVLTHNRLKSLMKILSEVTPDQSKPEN
UniProt Q96MG7: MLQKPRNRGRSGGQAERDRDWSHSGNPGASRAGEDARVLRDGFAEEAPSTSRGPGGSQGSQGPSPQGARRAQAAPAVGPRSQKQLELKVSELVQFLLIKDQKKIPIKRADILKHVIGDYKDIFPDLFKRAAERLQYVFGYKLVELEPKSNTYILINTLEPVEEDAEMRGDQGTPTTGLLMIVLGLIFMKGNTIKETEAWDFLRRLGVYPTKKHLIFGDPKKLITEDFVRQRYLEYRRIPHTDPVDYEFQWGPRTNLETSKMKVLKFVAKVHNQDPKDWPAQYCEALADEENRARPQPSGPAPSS
UniProt Q9NV35: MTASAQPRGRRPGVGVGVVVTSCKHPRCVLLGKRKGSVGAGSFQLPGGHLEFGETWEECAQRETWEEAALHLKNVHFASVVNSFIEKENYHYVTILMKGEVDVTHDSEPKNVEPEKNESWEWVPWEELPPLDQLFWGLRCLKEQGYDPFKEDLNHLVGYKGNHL
UniProt Q9BQG2: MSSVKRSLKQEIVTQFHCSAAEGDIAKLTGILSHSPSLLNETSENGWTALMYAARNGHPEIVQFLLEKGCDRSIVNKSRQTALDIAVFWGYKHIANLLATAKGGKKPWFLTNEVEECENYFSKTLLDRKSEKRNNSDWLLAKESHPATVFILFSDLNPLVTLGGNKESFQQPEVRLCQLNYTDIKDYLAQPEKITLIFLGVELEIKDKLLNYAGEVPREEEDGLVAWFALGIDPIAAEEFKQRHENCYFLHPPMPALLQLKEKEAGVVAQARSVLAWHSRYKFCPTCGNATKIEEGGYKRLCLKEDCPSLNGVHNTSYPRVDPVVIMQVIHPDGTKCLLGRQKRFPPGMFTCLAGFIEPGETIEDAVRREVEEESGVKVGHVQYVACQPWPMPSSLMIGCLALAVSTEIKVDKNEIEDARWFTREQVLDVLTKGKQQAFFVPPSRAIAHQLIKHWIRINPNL
UniProt Q9NX40: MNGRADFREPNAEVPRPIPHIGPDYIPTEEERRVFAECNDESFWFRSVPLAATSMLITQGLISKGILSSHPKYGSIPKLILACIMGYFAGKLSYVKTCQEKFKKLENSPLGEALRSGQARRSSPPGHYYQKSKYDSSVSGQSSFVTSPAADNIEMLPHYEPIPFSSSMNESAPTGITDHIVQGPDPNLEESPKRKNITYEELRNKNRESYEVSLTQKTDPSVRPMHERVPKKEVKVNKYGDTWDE
UniProt Q9BV86: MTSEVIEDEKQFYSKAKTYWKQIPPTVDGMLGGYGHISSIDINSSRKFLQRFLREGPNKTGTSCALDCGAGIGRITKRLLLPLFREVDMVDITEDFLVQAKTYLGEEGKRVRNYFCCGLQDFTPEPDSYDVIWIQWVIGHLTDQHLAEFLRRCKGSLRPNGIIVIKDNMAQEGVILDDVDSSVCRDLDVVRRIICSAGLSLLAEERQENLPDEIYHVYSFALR
UniProt Q9BSD7: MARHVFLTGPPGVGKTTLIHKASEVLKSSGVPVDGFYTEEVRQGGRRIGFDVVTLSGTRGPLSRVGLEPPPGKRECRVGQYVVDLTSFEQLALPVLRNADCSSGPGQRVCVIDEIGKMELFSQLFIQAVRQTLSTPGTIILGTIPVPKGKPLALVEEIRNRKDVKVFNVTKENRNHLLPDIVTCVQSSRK
UniProt Q99567: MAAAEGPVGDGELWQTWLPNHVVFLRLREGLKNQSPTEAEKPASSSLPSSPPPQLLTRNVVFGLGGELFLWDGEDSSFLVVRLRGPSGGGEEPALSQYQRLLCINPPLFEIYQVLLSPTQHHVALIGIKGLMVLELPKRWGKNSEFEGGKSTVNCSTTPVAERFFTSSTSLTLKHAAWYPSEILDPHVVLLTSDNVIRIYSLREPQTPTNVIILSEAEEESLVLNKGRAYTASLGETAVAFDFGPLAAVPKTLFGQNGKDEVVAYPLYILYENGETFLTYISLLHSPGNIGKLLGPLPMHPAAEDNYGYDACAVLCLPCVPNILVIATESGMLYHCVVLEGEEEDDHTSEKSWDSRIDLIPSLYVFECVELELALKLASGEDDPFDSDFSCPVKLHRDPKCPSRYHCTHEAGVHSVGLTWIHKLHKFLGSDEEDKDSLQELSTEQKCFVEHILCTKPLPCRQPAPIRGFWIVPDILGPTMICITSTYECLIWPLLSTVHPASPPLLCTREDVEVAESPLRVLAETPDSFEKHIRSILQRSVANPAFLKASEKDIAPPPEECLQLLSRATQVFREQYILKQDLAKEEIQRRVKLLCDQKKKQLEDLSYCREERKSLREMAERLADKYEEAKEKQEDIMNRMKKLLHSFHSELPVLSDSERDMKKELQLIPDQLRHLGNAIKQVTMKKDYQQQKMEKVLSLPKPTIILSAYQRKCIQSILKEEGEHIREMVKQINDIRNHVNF
UniProt Q96BN8, whole entry, looked up: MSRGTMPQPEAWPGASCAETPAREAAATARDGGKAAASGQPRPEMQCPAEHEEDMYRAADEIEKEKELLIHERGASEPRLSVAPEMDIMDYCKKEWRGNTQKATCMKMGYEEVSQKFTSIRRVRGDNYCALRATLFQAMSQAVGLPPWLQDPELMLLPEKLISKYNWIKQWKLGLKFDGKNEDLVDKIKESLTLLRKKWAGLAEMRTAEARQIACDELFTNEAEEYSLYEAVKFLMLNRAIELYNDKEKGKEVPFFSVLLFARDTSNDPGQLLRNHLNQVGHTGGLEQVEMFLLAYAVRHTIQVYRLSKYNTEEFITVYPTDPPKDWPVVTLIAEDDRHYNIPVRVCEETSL
UniProt Q7Z417: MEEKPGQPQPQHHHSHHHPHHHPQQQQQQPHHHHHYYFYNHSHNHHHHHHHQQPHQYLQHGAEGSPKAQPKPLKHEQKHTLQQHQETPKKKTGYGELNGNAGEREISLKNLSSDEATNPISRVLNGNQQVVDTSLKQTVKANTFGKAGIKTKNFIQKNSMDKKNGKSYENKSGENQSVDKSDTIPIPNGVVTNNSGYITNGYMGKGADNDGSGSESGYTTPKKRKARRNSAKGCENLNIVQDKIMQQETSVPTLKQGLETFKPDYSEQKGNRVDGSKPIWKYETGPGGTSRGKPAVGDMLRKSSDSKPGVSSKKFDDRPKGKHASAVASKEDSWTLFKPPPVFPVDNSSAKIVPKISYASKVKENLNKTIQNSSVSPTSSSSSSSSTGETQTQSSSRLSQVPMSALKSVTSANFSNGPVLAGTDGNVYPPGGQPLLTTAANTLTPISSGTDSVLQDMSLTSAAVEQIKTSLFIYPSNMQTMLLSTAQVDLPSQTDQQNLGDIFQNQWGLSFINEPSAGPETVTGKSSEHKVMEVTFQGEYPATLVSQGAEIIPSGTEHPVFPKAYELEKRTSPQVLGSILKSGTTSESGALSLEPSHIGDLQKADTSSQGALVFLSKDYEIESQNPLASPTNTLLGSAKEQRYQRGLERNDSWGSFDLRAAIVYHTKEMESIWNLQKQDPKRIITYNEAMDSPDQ
UniProt Q6PK18: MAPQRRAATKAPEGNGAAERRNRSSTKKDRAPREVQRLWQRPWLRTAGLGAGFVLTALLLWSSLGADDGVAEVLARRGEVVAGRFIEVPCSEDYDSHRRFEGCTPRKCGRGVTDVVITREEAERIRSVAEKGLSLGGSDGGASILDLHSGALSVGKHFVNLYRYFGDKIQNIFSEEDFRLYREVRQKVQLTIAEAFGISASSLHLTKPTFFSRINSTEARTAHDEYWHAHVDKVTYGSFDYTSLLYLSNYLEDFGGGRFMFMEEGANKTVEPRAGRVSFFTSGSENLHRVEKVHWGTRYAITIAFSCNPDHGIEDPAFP
UniProt Q9NPF4: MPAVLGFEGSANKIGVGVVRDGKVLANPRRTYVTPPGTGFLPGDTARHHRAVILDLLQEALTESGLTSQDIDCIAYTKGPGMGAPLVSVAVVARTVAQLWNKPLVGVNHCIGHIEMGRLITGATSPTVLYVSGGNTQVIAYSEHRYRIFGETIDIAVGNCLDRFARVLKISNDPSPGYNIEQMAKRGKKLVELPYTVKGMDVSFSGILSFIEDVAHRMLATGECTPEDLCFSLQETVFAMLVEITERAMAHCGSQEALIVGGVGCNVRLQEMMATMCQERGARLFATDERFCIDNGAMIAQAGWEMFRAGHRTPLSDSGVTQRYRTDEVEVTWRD

[2] = compound: NC(=O)c1cnc(N[C@@H]2CCCC[C@@H]2N)nc1Nc1cccc(-n2nccn2)c1
Outline: as §1

[3] = compound: NC1(c2ccc(-c3nc4ccn5c(=O)[nH]nc5c4cc3-c3ccccc3)cc2)CCC1
Outline: as §1

[4] = compound: NCC(=O)Nc1ccc(-n2nc(C(F)(F)F)cc2-c2ccc3c(ccc4ccccc43)c2)cc1
Outline: as §1

entinostat = compound: Nc1ccccc1NC(=O)c1ccc(CNC(=O)OCc2cccnc2)cc1 [entinostat]
Outline: as §1

vorinostat = compound: O=C(CCCCCCC(=O)Nc1ccccc1)NO [vorinostat]
Outline: as §1

citarinostat = compound: O=C(CCCCCCNC(=O)c1cnc(N(c2ccccc2)c2ccccc2Cl)nc1)NO [citarinostat]
Outline: as §1

silmitasertib = compound: O=C(O)c1ccc2c(c1)nc(Nc1cccc(Cl)c1)c1ccncc12 [silmitasertib]
Outline: as §1

[5] = compound: O=C1NC(=O)C(c2cnc3ccccn23)=C1c1cn2c3c(cc(F)cc13)CN(C(=O)N1CCCCC1)CC2
Outline: as §1

[6] = compound: c1cc(OCCN2CCCCC2)cc(-c2n[nH]c3ccc(-c4nnc[nH]4)cc23)c1
Outline: as §1

Measured: log2 fold change

NSUN6 (UniProt Q8TEA1)
inactive: [1] -0.044 | [2] -0.012 | [3] -0.013 | [4] -0.019 | entinostat -0.011 | vorinostat 0.012 | citarinostat -0.007 | silmitasertib -0.014 | [5] -0.04 | [6] -0.045

OS9 (UniProt Q13438)
inactive: [1] 0.007 | [2] -0.001 | [3] 0.006 | [4] -0.017 | entinostat 0.002 | vorinostat 0.012 | citarinostat -0.02 | silmitasertib 0.013 | [5] 0.045 | [6] -0.075

NSRP1 (UniProt Q9H0G5)
inactive: [1] 0.064 | [2] 0.071 | [3] 0.149 | [4] 0.016 | entinostat -0.037 | vorinostat 0.002 | citarinostat -0.044 | silmitasertib 0.072 | [5] 0.085 | [6] -0.164

PAAF1 (UniProt Q9BRP4)
inactive: [1] 0.028 | [2] -0.011 | [3] -0.078 | [4] 0.019 | entinostat 0.006 | vorinostat -0.013 | citarinostat -0.003 | silmitasertib -0.001 | [5] 0.014 | [6] -0.025

PABPC1 (UniProt P11940)
inactive: [1] -0.015 | [2] 0.034 | [3] 0.129 | [4] -0.012 | entinostat 0.011 | vorinostat 0.029 | citarinostat -0.068 | silmitasertib 0.019 | [5] 0.091 | [6] -0.112

NUP93 (UniProt Q8N1F7)
inactive: [1] 0.004 | [2] -0.029 | [3] -0.118 | [4] -0.066 | entinostat 0.057 | vorinostat 0.169 | citarinostat 0.074 | silmitasertib 0.05 | [5] 0.035 | [6] -0.043

NSUN4 (UniProt Q96CB9)
inactive: [1] -0.037 | [2] 0.032 | [3] 0.092 | [4] 0.006 | entinostat -0.002 | vorinostat -0.016 | citarinostat -0.057 | silmitasertib -0.029 | [5] 0.126 | [6] -0.068

OIP5 (UniProt O43482)
inactive: [1] -0.046 | [2] -0.038 | [3] 0.007 | [4] 0.012 | entinostat -0.005 | vorinostat -0.06 | citarinostat 0.066 | silmitasertib -0.03 | [5] -0.13 | [6] -0.113

NUP160 (UniProt Q12769)
inactive: [1] 0.031 | [2] -0.058 | [3] -0.066 | [4] -0.062 | entinostat 0.008 | vorinostat 0.05 | citarinostat 0.018 | silmitasertib 0.075 | [5] 0.021 | [6] -0.09

NUP98 (UniProt P52948)
inactive: [1] 0.018 | [2] -0.086 | [3] -0.025 | [4] -0.076 | entinostat 0 | vorinostat 0.052 | citarinostat 0.028 | silmitasertib 0.072 | [5] 0.001 | [6] -0.073

Reprinted at random: 2 entries already listed
NSUN4 (UniProt Q96CB9)
inactive: [1] -0.037 | [2] 0.032 | [3] 0.092 | [4] 0.006 | entinostat -0.002 | vorinostat -0.016 | citarinostat -0.057 | silmitasertib -0.029 | [5] 0.126 | [6] -0.068

OIP5 (UniProt O43482)
inactive: [1] -0.046 | [2] -0.038 | [3] 0.007 | [4] 0.012 | entinostat -0.005 | vorinostat -0.06 | citarinostat 0.066 | silmitasertib -0.03 | [5] -0.13 | [6] -0.113

Additional entries.

NSUN5 isoform 2 (UniProt Q96P11)
inactive: [1] -0.002 | [2] 0.103 | [3] -0.137 | [4] 0.054 | entinostat 0.06 | vorinostat 0.07 | citarinostat -0.015 | silmitasertib -0.107 | [5] 0.125 | [6] -0.083

NSMCE3 (UniProt Q96MG7)
inactive: [1] 0.123 | [2] -0.106 | [3] 0.015 | [4] 0.017 | entinostat -0.048 | vorinostat -0.127 | citarinostat -0.004 | silmitasertib 0.028 | [5] 0.059 | [6] -0.156

OXNAD1 (UniProt Q96HP4)
inactive: [1] -0.04 | [2] -0.013 | [3] 0.004 | [4] -0.062 | entinostat -0.021 | vorinostat -0.022 | citarinostat 0.018 | silmitasertib 0.031 | [5] -0.023 | [6] 0.064

NUP153 (UniProt P49790)
inactive: [1] 0.054 | [2] 0.015 | [3] -0.002 | [4] 0.005 | entinostat -0.01 | vorinostat 0.018 | citarinostat 0.019 | silmitasertib 0.088 | [5] 0.025 | [6] -0.105

NUDT15 (UniProt Q9NV35)
inactive: [1] -0.065 | [2] 0.022 | [3] -0.051 | [4] -0.002 | entinostat -0.016 | vorinostat 0.063 | citarinostat 0.015 | silmitasertib -0.033 | [5] -0.049 | [6] 0.007

NUDT12 (UniProt Q9BQG2)
inactive: [1] -0.005 | [2] 0.025 | [3] -0.038 | [4] -0.02 | entinostat -0.044 | vorinostat -0.035 | citarinostat 0.031 | silmitasertib -0.029 | [5] -0.032 | [6] 0.031

OXA1L (UniProt Q15070)
inactive: [1] 0.019 | [2] -0.021 | [3] -0.04 | [4] -0.025 | entinostat -0.021 | vorinostat 0.005 | citarinostat 0.017 | silmitasertib 0.02 | [5] -0.038 | [6] 0.113

NUP50 (UniProt Q9UKX7)
inactive: [1] 0.017 | [2] -0.01 | [3] 0.027 | [4] 0.025 | entinostat -0.012 | vorinostat -0.042 | citarinostat 0.038 | silmitasertib 0.003 | [5] -0.062 | [6] -0.012

OCIAD1 (UniProt Q9NX40)
inactive: [1] -0.004 | [2] -0.012 | [3] -0.009 | [4] 0.041 | entinostat -0.035 | vorinostat -0.066 | citarinostat 0.027 | silmitasertib -0.029 | [5] -0.007 | [6] -0.001

OAT (UniProt P04181)
inactive: [1] -0.051 | [2] -0.076 | [3] -0.235 | [4] -0.058 | entinostat 0.029 | vorinostat 0.129 | citarinostat 0.131 | silmitasertib -0.036 | [5] -0.031 | [6] 0.006

NTMT1 (UniProt Q9BV86)
inactive: [1] -0.035 | [2] 0.027 | [3] 0.077 | [4] -0.002 | entinostat 0.024 | vorinostat -0.089 | citarinostat -0.069 | silmitasertib -0.028 | [5] -0.029

NTPCR (UniProt Q9BSD7)
inactive: [1] -0.008 | [2] -0.052 | [3] -0.124 | [4] -0.062 | entinostat -0.008 | vorinostat 0.042 | citarinostat 0.103 | silmitasertib -0.099 | [5] -0.007 | [6] 0.035

NUP88 (UniProt Q99567)
inactive: [1] -0.058 | [2] 0.027 | [3] -0.027 | [4] -0.031 | entinostat 0.035 | vorinostat 0.103 | citarinostat 0.025 | silmitasertib 0.141 | [5] 0.057 | [6] -0.038

OTULIN (UniProt Q96BN8)
inactive: [1] 0.008 | [2] -0.017 | [3] -0.183 | [4] -0.093 | entinostat 0.097 | vorinostat 0.038 | citarinostat -0.005 | silmitasertib 0.086 | [5] -0.143 | [6] -0.077

NUDCD1 (UniProt Q96RS6)
inactive: [1] 0.018 | [2] -0.043 | [3] -0.131 | [4] -0.022 | entinostat 0.017 | vorinostat 0.043 | citarinostat 0.058 | silmitasertib -0.008 | [5] -0.028 | [6] -0.015

NUFIP2 (UniProt Q7Z417)
inactive: [1] 0.087 | [2] 0.056 | [3] 0.103 | [4] 0.043 | entinostat -0.012 | vorinostat -0.026 | citarinostat -0.028 | silmitasertib 0.014 | [5] 0.1 | [6] -0.093

OGFOD3 isoform 2 (UniProt Q6PK18)
inactive: [1] -0.089 | [2] 0.035 | [3] -0.192 | [4] -0.018 | entinostat -0.072 | vorinostat -0.063 | citarinostat -0.068 | silmitasertib -0.028 | [5] -0.023 | [6] -0.052

OSGEP (UniProt Q9NPF4)
inactive: [1] -0.012 | [2] 0.006 | [3] -0.018 | [4] -0.028 | entinostat -0.025 | vorinostat -0.017 | citarinostat -0.026 | silmitasertib -0.008 | [5] -0.027 | [6] -0.064

NUBP1 (UniProt P53384)
inactive: [1] -0.069 | [2] -0.032 | [3] -0.114 | [4] -0.068 | entinostat 0 | vorinostat 0.053 | citarinostat 0.057 | silmitasertib -0.045 | [5] -0.027 | [6] -0.004

NUP85 (UniProt Q9BW27)
inactive: [1] 0.01 | [2] -0.014 | [3] -0.092 | [4] -0.035 | entinostat -0.011 | vorinostat 0.021 | citarinostat 0.031 | silmitasertib 0.047 | [5] -0.041 | [6] -0.041

Reference: the supplement of paper PMC10849652
